{"source": "PubChem BioAssay AID662", "about": "(National Center for Advancing Translational Sciences (NCATS), 2007)", "note": "The list shows a part of the results. Further columns of the screen follow, without active or inactive calls. The list favours compounds with an active or inconclusive main result. Potencies come from curve fits of mixed quality, noted in brackets."}
{"assay": "Cell signaling CRE-BLA (Fsk stim)", "conditions": "CHO CRE-bla reporter (cAMP response element driving beta-lactamase), forskolin EC10, beta-lactamase ratio; measured here: 460 nm blue channel", "in_short": "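CRE-bla CHO reporter cells treated with compound titration plus EC10 NKH 477 (water-soluble forskolin), incubated 3 h at 37 °C; CCF4 loading 2 h at room temperature, 460/530 nm emission ratio read, AC50 values derived for positive or negative modulators.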"}
{"smiles": "COc1ccc(CNn2c(C)nc3ccccc3c2=O)cc1", "AC50": "5.01 µM [falling, partial curve, poor fit]"}
{"smiles": "O=C(Cn1cc(C(=O)c2cccs2)c2ccccc21)NCc1ccc2c(c1)OCO2", "AC50": "25.1 µM [falling, single point]"}
{"smiles": "CCOC(=O)C1CCCN(C(=O)CC(C)c2ccccc2)C1", "note": "(centres undefined)", "AC50": "1 µM [falling, partial curve]"}
{"smiles": "CCCCCCCC/C=C\\CCCCCCCC(=O)N(CCO)CCO", "AC50": "10 µM [rising, full curve]"}
{"smiles": "c1cncc(CNc2cc(-c3ccc4c(c3)OCO4)ncn2)c1", "AC50": "10 µM [rising, partial curve]"}
{"smiles": "Cc1csc(C(C#N)C(=O)c2ccc(S(=O)(=O)N3CCCC3)cc2)n1", "note": "(centres undefined)", "AC50": "2.51 µM [rising, single point]"}
{"smiles": "CN(C)c1ncc2nc(-c3cc(F)cc(F)c3)c(=O)n(CCC#N)c2n1", "AC50": "10 µM [rising, partial curve]"}
{"smiles": "Cc1cc(C)c2ccc(C)[n+]([O-])c2c1O", "AC50": "12.6 µM [rising, single point]"}
{"smiles": "Cc1ccc(C(=O)Nc2ccc3c(c2)OCO3)cc1S(=O)(=O)N1CCCC1", "AC50": "0.00316 µM [falling, partial curve, poor fit]"}
{"smiles": "CC1CCCC(C(=O)OCc2ccccc2)N1", "note": "(centres undefined)", "AC50": "7.94 µM [falling, partial curve]"}
{"smiles": "Cc1ccc(C2C3=C(CC(C)(C)CC3=O)Nc3[nH]c(=S)[nH]c(=O)c32)cc1", "note": "(centres undefined)", "AC50": "5.01 µM [rising, single point]"}
{"smiles": "Cc1onc(-c2ccccc2Cl)c1C(=O)OCC(=O)c1ccc2c(c1)OCCO2", "AC50": "20 µM [falling, single point]"}
{"smiles": "COc1ccccc1NC(=O)N(Cc1ccc2c(c1)OCO2)Cc1nc2ccccc2c(=O)[nH]1", "AC50": "2.51 µM [rising, partial curve]"}
{"smiles": "Cc1cc(NC(=O)CSc2nnc3c4c(C)c(C)sc4ncn23)no1", "AC50": "10 µM [rising, partial curve]"}
{"smiles": "CCOc1ccc(C(=O)C2CCN(CC(=O)Nc3ccccc3N3CCOCC3)CC2)cc1", "AC50": "2 µM [rising, single point]"}
{"smiles": "CCNc1nc(NCC)n2c(SCc3nc4ccccc4c(=O)[nH]3)nnc2n1", "AC50": "0.2 µM [rising, full curve]"}
{"smiles": "CCNc1nc(Oc2ccc(C(=O)OCC)cc2)nc(SC)n1", "AC50": "10 µM [rising, partial curve]"}
{"smiles": "CSc1nnc(-c2ccco2)c(-c2ccco2)n1", "AC50": "3.98 µM [falling, full curve]"}
{"smiles": "COc1cc2c(cc1OC)-c1nncn1C(C)(C)C2", "AC50": "12.6 µM [rising, single point]"}
{"smiles": "COc1cccc(Nc2ncc3ncc(=O)n(Cc4ccc(F)cc4)c3n2)c1", "AC50": "12.6 µM [falling, single point]"}
{"smiles": "COc1ccc(C(=O)Nc2nncs2)cc1S(=O)(=O)N1CC(c2ccccc2)CC1=O", "note": "(centres undefined)", "AC50": "5.01 µM [falling, partial curve]"}
{"smiles": "Cn1cc(-c2nc3cnc(Oc4ccccc4)nc3n(C3CC3)c2=O)c2ccccc21", "AC50": "5.01 µM [rising, partial curve]"}
{"smiles": "CC(C)(NCc1ccccc1Cl)C(=O)O", "AC50": "0.0126 µM [falling, full curve, poor fit]"}
{"smiles": "O=C(CCCn1c(=O)[nH]c2ccsc2c1=O)N1CCN(Cc2ccc3c(c2)OCO3)CC1", "AC50": "25.1 µM [rising, single point]"}
{"smiles": "COc1cccc(C2C(C(=O)OC(C)C)=C(C)Nc3ncnn32)c1", "note": "(centres undefined)", "AC50": "6.31 µM [rising, partial curve]"}
{"smiles": "C[C@@H](CCc1ccc(O)cc1)NCCc1ccc(O)c(O)c1", "AC50": "25.1 µM [falling, single point]"}
{"smiles": "CC(=O)SCC(=O)N=c1sc2cc(F)ccc2n1C", "AC50": "0.02 µM [falling, full curve]"}
{"smiles": "COc1ccccc1-n1nnnc1S(=O)(=O)Cc1ccc(Cl)cc1", "AC50": "1.26 µM [falling, full curve]"}
{"smiles": "Cc1[nH]n2c(=O)c3c(nc2c1-c1ccccc1)CCCC3", "AC50": "25.1 µM [rising, single point]"}
{"smiles": "Nc1nc(CSc2nnnn2-c2ccc(F)c(Cl)c2)nc(N2CCOCC2)n1", "AC50": "12.6 µM [rising, partial curve]"}
{"smiles": "CCCCN(C)C(=O)c1coc(=O)c2ccccc12", "AC50": "0.0631 µM [falling, full curve]"}
{"smiles": "COc1ccc(-c2nn3c(-c4ccc(F)cc4)nnc3s2)cc1", "AC50": "5.01 µM [falling, single point]"}
{"smiles": "Cc1n[nH]c(C)c1S(=O)(=O)N(CC(=O)Nc1ccc2c(c1)OCCO2)c1ccc(C(C)C)cc1", "AC50": "10 µM [falling, partial curve]"}
{"smiles": "Cc1nc2cnc(N3CCN(C)CC3)nc2n(Cc2cccs2)c1=O", "AC50": "12.6 µM [rising, single point]"}
{"smiles": "COc1ccc(S(=O)(=O)N(C)CC(=O)O)c2ccccc12", "AC50": "0.0501 µM [falling, full curve, poor fit]"}
{"smiles": "COc1ncc2nc(-c3ccc(F)cc3)c(=O)n(Cc3ccc(F)cc3)c2n1", "AC50": "10 µM [rising, partial curve]"}
{"smiles": "COc1cccc(Nc2ncc3nc(CCc4ccccc4)c(=O)n(C[C@H]4CCCO4)c3n2)c1", "AC50": "7.94 µM [rising, partial curve]"}
{"smiles": "CCCn1c(=O)c2ccccc2n2c(SCCOc3ccc(C)cc3)nnc12", "AC50": "2 µM [falling, partial curve]"}
{"smiles": "N#CC1=C(N)OC2=C(C(=O)CCC2)C1c1ccccc1", "note": "(centres undefined)", "AC50": "1 µM [rising, partial curve]"}
{"smiles": "N#Cc1nc(-c2ccco2)oc1N1CCOCC1", "AC50": "0.794 µM [rising, partial curve]"}
{"smiles": "Clc1ccc(OCc2nc(-c3ccccn3)no2)c(Br)c1", "AC50": "10 µM [rising, partial curve]"}
{"smiles": "Nc1c(C(=O)NCc2ccco2)sc2nc3c(cc12)C(=O)CCC3", "AC50": "12.6 µM [rising, single point]"}
{"smiles": "COc1ccc(S(=O)(=O)N2CCN(c3cccc(C)c3C)CC2)cc1", "AC50": "6.31 µM [falling, partial curve]"}
{"smiles": "CCOc1ccc(-c2nc(-c3ccccc3)no2)cc1OCC", "AC50": "10 µM [rising, single point]"}
{"smiles": "CN(C)C(=O)CSc1nnc(-c2cc(-c3cccs3)nc3ccccc23)o1", "AC50": "0.316 µM [falling, partial curve]"}
{"smiles": "COc1ccc(-n2c(=O)c(-c3cccs3)nc3cnc(N4CCN(C)CC4)nc32)cc1", "AC50": "12.6 µM [rising, partial curve]"}
{"smiles": "Cn1c(=O)c(-c2ccc(F)cc2)nc2cnc(N3CCOCC3)nc21", "AC50": "2 µM [rising, full curve]"}
{"smiles": "CCn1nnnc1SCC(=O)Nc1cccc(NC(C)=O)c1", "AC50": "0.0126 µM [falling, full curve, poor fit]"}
{"smiles": "Cc1ccc(Cn2c(N3CCCCCC3)nc3c2c(=O)[nH]c(=O)n3C)cc1", "AC50": "10 µM [rising, single point]"}
{"smiles": "CCOC(=O)CSc1nnc(CSc2nc3sc4c(c3c(=O)[nH]2)CCC4)n1C", "AC50": "12.6 µM [rising, partial curve]"}
{"smiles": "O=C1c2ccccc2-c2c1nc1c([n+]2[O-])CCCC1", "AC50": "10 µM [rising, single point]"}
{"smiles": "CN(CCC#N)C(=O)CSc1ncnc2sc(-c3ccccc3)cc12", "AC50": "3.98 µM [falling, single point]"}
{"smiles": "COc1cccc(-c2cc(C(F)(F)F)nc(-n3cncn3)n2)c1", "AC50": "7.94 µM [rising, partial curve]"}
{"smiles": "COc1ccc(-c2nc3n(c(=O)c2C#N)CCCS3)cc1", "AC50": "10 µM [rising, single point]"}
{"smiles": "COC(=O)c1ccccc1Nc1cc(C)nc2nc(C)nn12", "AC50": "12.6 µM [rising, partial curve]"}
{"smiles": "O=C(CCc1ccccc1)Nc1ccc(Cl)cn1", "AC50": "12.6 µM [rising, single point]"}
{"smiles": "O=C(CCCC(=O)N(CC(=O)NC1CCCC1)Cc1ccccc1)Nc1ccccn1", "AC50": "3.16 µM [falling, partial curve]"}
{"smiles": "CCCN1CN(Cc2ccco2)c2nc3ccccc3n2C1", "AC50": "0.0251 µM [falling, full curve, poor fit]"}
{"smiles": "COc1cccc(NC(=O)NC2(C(F)(F)F)Oc3ccccc3O2)c1", "AC50": "12.6 µM [falling, partial curve, poor fit]"}
{"smiles": "CCN(CC)CCCNC(=O)N[C@@H](Cc1ccccc1)C(=O)O", "AC50": "12.6 µM [falling, partial curve]"}
{"smiles": "O=C(c1ccc2c(c1)OCCO2)N(c1ccccn1)C1CCCCC1", "AC50": "0.00794 µM [falling, full curve, poor fit]"}
{"smiles": "CCn1c(SCC(=O)Nc2ccc(C(=O)OC)cc2)nnc1-c1cccs1", "AC50": "25.1 µM [rising, single point]"}
{"smiles": "COc1ccc(C(=O)NCCc2ccc(S(N)(=O)=O)cc2)cc1OC", "AC50": "0.398 µM [falling, full curve]"}
{"smiles": "CCCCn1c2nc3ccccc3nc2c2c(=O)n(C(C)CC)cnc21", "note": "(centres undefined)", "AC50": "2 µM [rising, partial curve]"}
{"smiles": "CCc1ccc2c(CN3CCN(S(=O)(=O)c4ccc5c(c4)OCCO5)CC3)cc(=O)oc2c1", "AC50": "25.1 µM [falling, single point]"}
{"smiles": "COc1ccc(OC)c(S(=O)(=O)N2C(C)CCCC2C)c1", "note": "(centres undefined)", "AC50": "2 µM [falling, full curve, poor fit]"}
{"smiles": "Clc1cccc(N2CCN(Cc3nc(-c4ccccc4)no3)CC2)c1", "AC50": "6.31 µM [falling, partial curve]"}
{"smiles": "CCN(Cc1cc2ccccc2[nH]c1=O)S(=O)(=O)c1ccccc1", "AC50": "10 µM [rising, single point]"}
{"smiles": "CCCn1c(SCC(=O)N2CCN(c3ccc(OC)cc3)CC2)nc2c1c(=O)n(C)c(=O)n2C", "AC50": "10 µM [rising, partial curve]"}
